From paper PMC3205050
Results are given in words; binding and its absence hold for the method and conditions named. For part of these data: In cells and extracts the contact can be indirect. Some results given as binding are weak or reduced against the parent protein; the word gives no strength. Blank lines part the entries; values can stand above or below the substance they belong to.

Amino acid sequences for entries named in this document (tags omitted).
UniProt P27008: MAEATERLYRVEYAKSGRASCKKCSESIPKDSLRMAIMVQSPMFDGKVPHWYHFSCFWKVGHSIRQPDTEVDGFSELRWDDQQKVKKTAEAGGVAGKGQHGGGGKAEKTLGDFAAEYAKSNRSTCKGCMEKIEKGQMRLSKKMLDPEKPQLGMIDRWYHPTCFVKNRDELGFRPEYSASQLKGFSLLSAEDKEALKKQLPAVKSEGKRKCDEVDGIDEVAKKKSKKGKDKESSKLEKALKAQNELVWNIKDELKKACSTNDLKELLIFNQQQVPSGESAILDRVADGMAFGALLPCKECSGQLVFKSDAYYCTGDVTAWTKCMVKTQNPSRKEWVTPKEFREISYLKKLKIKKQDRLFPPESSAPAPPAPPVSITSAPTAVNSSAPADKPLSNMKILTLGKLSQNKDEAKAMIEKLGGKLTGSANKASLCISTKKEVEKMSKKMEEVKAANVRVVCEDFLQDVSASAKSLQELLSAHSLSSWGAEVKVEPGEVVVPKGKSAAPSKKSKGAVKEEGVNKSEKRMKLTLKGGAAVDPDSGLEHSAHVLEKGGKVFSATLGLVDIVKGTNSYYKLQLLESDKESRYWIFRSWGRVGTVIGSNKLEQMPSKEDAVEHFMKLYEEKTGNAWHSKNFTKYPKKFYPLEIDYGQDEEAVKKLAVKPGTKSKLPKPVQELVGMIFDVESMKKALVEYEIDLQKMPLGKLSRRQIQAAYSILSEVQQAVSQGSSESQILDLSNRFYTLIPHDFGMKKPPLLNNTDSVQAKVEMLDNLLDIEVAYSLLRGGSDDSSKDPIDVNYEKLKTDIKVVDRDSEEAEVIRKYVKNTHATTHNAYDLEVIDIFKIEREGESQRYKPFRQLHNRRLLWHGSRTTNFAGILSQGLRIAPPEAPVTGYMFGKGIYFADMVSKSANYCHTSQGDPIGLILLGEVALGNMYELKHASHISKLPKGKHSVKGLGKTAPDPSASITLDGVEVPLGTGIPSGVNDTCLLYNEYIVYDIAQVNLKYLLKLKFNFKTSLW
UniProt P84025: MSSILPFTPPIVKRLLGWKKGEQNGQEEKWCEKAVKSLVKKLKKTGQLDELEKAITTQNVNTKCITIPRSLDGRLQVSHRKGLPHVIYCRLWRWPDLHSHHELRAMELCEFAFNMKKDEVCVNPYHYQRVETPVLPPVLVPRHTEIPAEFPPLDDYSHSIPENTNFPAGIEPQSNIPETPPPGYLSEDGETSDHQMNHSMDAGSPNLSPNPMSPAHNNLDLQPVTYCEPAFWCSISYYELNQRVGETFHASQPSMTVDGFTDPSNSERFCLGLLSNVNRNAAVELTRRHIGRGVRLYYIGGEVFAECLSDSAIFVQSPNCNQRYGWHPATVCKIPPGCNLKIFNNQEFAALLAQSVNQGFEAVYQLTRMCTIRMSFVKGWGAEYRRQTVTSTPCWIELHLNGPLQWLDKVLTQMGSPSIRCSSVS
UniProt P84022: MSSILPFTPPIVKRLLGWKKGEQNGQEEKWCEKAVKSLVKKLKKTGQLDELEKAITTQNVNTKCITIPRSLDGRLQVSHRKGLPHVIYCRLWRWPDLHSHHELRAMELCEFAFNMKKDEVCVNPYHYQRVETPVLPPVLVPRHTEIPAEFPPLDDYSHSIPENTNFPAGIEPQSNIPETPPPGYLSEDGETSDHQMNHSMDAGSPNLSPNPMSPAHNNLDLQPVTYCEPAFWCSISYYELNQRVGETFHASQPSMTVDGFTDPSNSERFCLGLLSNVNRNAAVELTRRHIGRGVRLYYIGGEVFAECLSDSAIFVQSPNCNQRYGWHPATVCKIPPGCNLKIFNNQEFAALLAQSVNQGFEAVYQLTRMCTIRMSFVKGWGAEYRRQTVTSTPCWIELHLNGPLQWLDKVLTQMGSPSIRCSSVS

Experiments:
[1] = biological target: poly(ADP-ribose) polymerase 1, endogenous in nuclear extracts of rat VSMCs (rat (endogenous in rat VSMCs)) (UniProt P27008); test: co-IP; 500 µg nuclear extracts from TGF-β1-treated rat VSMCs; antibody 1 hour at 4°C, protein-G agarose 12 hours at 4°C, washed 4 times with lysis buffer; western blot; unspecific IgG as negative control
[2] = biological target: poly(ADP-ribose) polymerase 1, endogenous in nuclear extracts of rat VSMCs (rat (endogenous in rat VSMCs)) (UniProt P27008); test: far-Western, overlay or dot blot; nuclear extracts of rat VSMCs resolved by SDS-PAGE and transferred to PVDF; membrane in Hyb-75 buffer (20 mmol/L HEPES pH 7.6, 75 mmol/L KCl) with 5% non-fat milk overnight at 4°C; probed with 1 µg/ml recombinant protein (PARP1 or pSmad3) at room temperature for 1 hour; detected with anti-PARP1 or anti-Smad3 antibody; only the binder purified
[3] = biological target: phosphorylated Smad3, endogenous in nuclear extracts of TGF-β1-treated rat VSMCs (rat (endogenous in rat VSMCs)) (UniProt P84025); test: co-IP; 500 µg nuclear extracts from TGF-β1-treated rat VSMCs; antibody 1 hour at 4°C, protein-G agarose 12 hours at 4°C, washed 4 times with lysis buffer; western blot; unspecific IgG as negative control

- binding [1]: binds
Substance: phosphorylated Smad3, endogenous in nuclear extracts of TGF-β1-treated rat VSMCs (from UniProt P84025 1-425)

- binding [2]: binds
Substance: phosphorylated Smad3, recombinant protein (from UniProt P84022 1-425)

- binding [3]: binds
Substance: poly(ADP-ribose) polymerase 1, endogenous in nuclear extracts of rat VSMCs (from UniProt P27008 1-1014) (enzyme)
